Patent EP4458352A1, “EICOSAPENTAENOIC ACID ESTER DERIVATIVES FOR THE TREATMENT OF OBESITY” (Technische Universität Dresden, priority 2023, dated 2024)
Read-outs that look alike come from different tables or passages of the source. At least one structure is not confirmed: it was looked up by name or label, or the drawing left a doubt.

Tests used:
[1] = tested on: Primary murine adrenocortical cells; experiment: Steroid production (LC-MS/MS of supernatant) in ACTH-stimulated primary adrenocortical cells treated with EPA; assay type: cell-based
FADS2 [2] = experiment: Fads2 expression by qPCR in primary CD31-CD45- adrenocortical cells treated with EPA; assay type: cell-based, WT C57BL/6J mice; conditions: 66 µM EPA for 18 h; 18S as housekeeping gene; n=7
FADS2 [3] = conditions: HepG2 hepatocytes; cited from earlier work
NCI-H295R cells = experiment: Steroid production (LC-MS/MS of supernatant) in forskolin-stimulated NCI-H295R cells treated with EPA; assay type: cell-based, Human; conditions: 66 µM EPA for 48 h, n=6; for cortisol production (glucocorticoid production): forskolin (FSK, 1 µM) stimulated
FADS2 [4] = experiment: Fads2 expression by qPCR in NCI-H295R cells treated with EPA; assay type: cell-based, Human; conditions: 66 µM EPA for 48 h; 18S as housekeeping gene; n=8
[5] = tested on: patients with major depression disorder; conditions: daily dose of 1 g, serum, cited from earlier work
FADS2 [6] = conditions: THP-1 cells; cited from earlier work
FADS2 [7] = conditions: 3T3-L1 adipocytes; cited from earlier work
[8] = tested on: mice with diet-induced obesity; experiment: Plasma corticosteroid (LC-MS/MS) and ACTH (ELISA) levels in HFD-fed obese mice given dietary icosapent ethyl; assay type: in vivo, WT C57BL/6J mice; conditions: 10 weeks HFD; for corticosterone plasma levels: then 10 weeks HFD with 1.125 g/kg icosapent ethyl (approx. 180 mg/kg of animal weight) vs HFD without
adrenal cortex = experiment: RNA-Seq and GSEA of the adrenal cortex of HFD mice with or without icosapent ethyl; assay type: in vivo, WT C57BL/6J mice
Experimental: Six weeks-old male WT C57BL/6J mice were fed for 20 weeks a LFD (D12450B, Research Diets, NJ, USA) or a HFD (D12492, Research Diets, NJ, USA). In some experiments, WT C57BL/6J mice were fed for 8 weeks a HFD and for another 8 weeks a HFD supplemented with SC-26196 (Biorbyt Ltd). SC-26196 was mixed in the HFD at a concentration of 625 mg/kg of diet corresponding to approx. 100 mg/kg of animal weight. In other experiments WT mice were fed for 10 weeks a HFD and for another 10 weeks a HFD supplemented with icosapent ethyl (Vascepa). The content of Vascepa capsules was mixed by Research Diets with the diet at a concentration of 1.125 g/kg icosapent ethyl (corresponding to approx. 180 mg/kg of animal weight). Mice were weighed every week. Glucose and insulin tolerance tests were performed as previously described (20, 21). Three to five mg of hair (2-3 mm close to the skin on the back of the mice) were cut while gently holding the mice without anaesthesia.
For transcriptome mapping, strand-specific paired-end sequencing libraries from total RNA were constructed using TruSeq stranded Total RNA kit (Illumina Inc). Sequencing was performed on an Illumina HiSeq3000 (1x75 basepairs). Low quality nucleotides were removed with the Illumina fastq filter and reads were further subjected to adaptor trimming using cutadapt (85). Alignment of the reads to the Mouse genome was done using STAR Aligner (86) using the parameters: "-runMode alignReads -outSAMstrandField intronMotif-outSAMtype BAM SortedByCoordinate-readFilesCommand zcat". Mouse Genome version GRCm38 (release M12 GENCODE) was used for the alignment. The parameters: `htseq-count -f bam -s reverse -m union -a 20', HTSeq-0.6.1p1 (87) were used to count the reads that map to the genes in the aligned sample files. The GTF file (gencode.vM12.annotation.gtf) used for read quantification was downloaded from Gencode (https://www.gencodegenes.org/mouse/release_M12.html). Gene centric differential expression analysis was performed using DESeq2_1.8.1 (88). The raw read counts for the genes across the samples were normalized using 'rlog' command of DESeq2 and subsequently these values were used to render a PCA plot using ggplot2_1.0.1 (89).
Pathway and functional analyses were performed using GSEA (89) and EGSEA (90). GSEA is a stand-alone software with a GUI. To run GSEA, a ranked list of all the genes from DESeq2 based calculations was created by taking the -log10 of the p-value and multiplying it with the sign the of the fold change. This ranked list was then queried against Molecular Signatures Database (MsigDB), KEGG, GO, Reactome and Hallmark based repositories. EGSEA is an R/Bioconductor based command-line package. […]

patients with obesity = experiment: Cortisol measured in patients with obesity before and after treatment with icosapent-ethyl (ongoing); assay type: in vivo, human; conditions: expected, experiment ongoing
[9] = tested on: patients with established cardiovascular disease, hypertriglyceridemia or diabetes; conditions: icosapent ethyl alone; large clinical studies; cited from earlier work
[10] = tested on: adrenal glands of mice fed a HFD; experiment: Adrenal gland lipid isomer, FFA and lipid mediator measurement (HPLC-MS) in HFD mice with or without icosapent ethyl; assay type: in vivo, WT C57BL/6J mice; conditions: HFD with vs without icosapent ethyl
[11] = listed as eicosapentaenoic acid
[12] = HFD with icosapent ethyl versus HFD without

CC/C=C\C/C=C\C/C=C\C/C=C\C/C=C\CCCC(=O)O [EPA, eicosapentaenoic acid]
glucocorticoid production (corticosterone in supernatant) ([1]; EPA 66 µM, ACTH 10 ng/ml, n=10): strongly reduced glucocorticoid production
cortisol and 11-deoxycortisol production ([1]; EPA treatment, ACTH-stimulated primary adrenocortical cells): reduced
FADS2 expression (FADS2 [2]): down-regulated
FADS2 expression (FADS2 [3]): downregulate
11-deoxycortisol production (NCI-H295R cells; forskolin (FSK, 1 µM) in the last 24 h): reduced
cortisol production (glucocorticoid production) (NCI-H295R cells): reduced
cortisol production (glucocorticoid production) (NCI-H295R cells; [11]): strongly reduced glucocorticoid production
FADS2 expression (FADS2 [4]): down-regulated
cortisol levels [5, 11]: decrease cortisol levels
cortisol levels [5]: decreased
FADS2 expression (FADS2 [6]): downregulate
FADS2 expression (FADS2 [7]): downregulate

CC/C=C\C/C=C\C/C=C\C/C=C\C/C=C\CCCC(=O)OCC [icosapent ethyl, eicosapentaenoic acid ethyl ester]
corticosterone plasma levels ([8]; n=7): reduced
corticosterone plasma levels ([8]; n=7, listed as Icosapent-ethyl): lowers glucocorticoid levels
ACTH plasma levels ([8]; then 10 weeks HFD with 1.125 g/kg icosapent ethyl vs HFD without): without altering
aldosterone plasma levels ([8]; then 10 weeks HFD with 1.125 g/kg icosapent ethyl vs HFD without, n=7): reduced
Acsl4 and Elovl2 expression in the adrenal cortex (RNA-Seq) (adrenal cortex; [12]): up-regulated
Plin2 and Lpcat3 expression in the adrenal cortex (RNA-Seq) (adrenal cortex; [12]): downregulated
GSEA: genes related to mitochondrial envelope formation, respiratory electron transport, oxidative phosphorylation and TCA cycle (adrenal cortex; adrenal cortex of icosapent ethyl-receiving HFD mice): negatively enriched
GSEA: genes related to fatty acid metabolism, cholesterol homeostasis and steroid biosynthesis (adrenal cortex; adrenal cortex of icosapent ethyl-treated HFD mice): negative enrichment
production and function of cortisol (patients with obesity): reduced
non-HDL cholesterol [9]: lowered
risk of cardiovascular events [9]: lowered
triglycerides [9]: lowered
DHA levels in adrenal phospholipids ([10]; n=7): higher
free DHA in the adrenal glands ([10]; n=7): increased
free EPA in the adrenal glands ([10]; n=7): increased
free omega-3 DPA in the adrenal glands ([10]; n=7): increased
free omega-6 DPA in the adrenal glands ([10]; n=7): decreased
omega-6 DPA levels in adrenal phospholipids ([10]; n=7): lower
prostaglandin D2 (PGD2) levels in the adrenal glands ([10]; n=7): reduced
thromboxane B2 (TXB2) levels in the adrenal glands ([10]; n=7): reduced
EPA incorporation in the phospholipids of adrenal glands ([10]; n=7 mice per group): increased
